This test concerns the target T1, Flag-TRIM8 (Tripartite motif 8) (UniProt Q9BZR9).
T1 sequence: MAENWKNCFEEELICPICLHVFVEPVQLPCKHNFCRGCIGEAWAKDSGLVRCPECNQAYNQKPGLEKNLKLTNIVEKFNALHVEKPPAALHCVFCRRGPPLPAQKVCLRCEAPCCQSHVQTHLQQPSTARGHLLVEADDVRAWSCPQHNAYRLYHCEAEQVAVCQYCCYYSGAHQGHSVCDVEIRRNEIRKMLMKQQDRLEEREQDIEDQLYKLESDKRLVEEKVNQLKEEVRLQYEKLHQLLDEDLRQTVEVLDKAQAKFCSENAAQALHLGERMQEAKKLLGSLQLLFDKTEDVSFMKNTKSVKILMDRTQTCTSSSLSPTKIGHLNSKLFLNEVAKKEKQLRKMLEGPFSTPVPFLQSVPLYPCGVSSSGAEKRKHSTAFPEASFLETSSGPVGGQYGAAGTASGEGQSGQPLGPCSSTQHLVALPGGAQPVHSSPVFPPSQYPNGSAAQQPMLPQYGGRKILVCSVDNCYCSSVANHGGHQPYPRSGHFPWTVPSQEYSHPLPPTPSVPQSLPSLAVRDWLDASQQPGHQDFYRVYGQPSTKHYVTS
In words: affinity purification with mass spectrometry; HEK293T cells transfected with Flag-TRIM8 or control plasmids; supernatant incubated with anti-Flag affinity gel; washed gel sent for MS; proteins present in the control group counted as non-specific.

The chains behind the UniProt entries cited, without tags or fusion partners.
UniProt P20823: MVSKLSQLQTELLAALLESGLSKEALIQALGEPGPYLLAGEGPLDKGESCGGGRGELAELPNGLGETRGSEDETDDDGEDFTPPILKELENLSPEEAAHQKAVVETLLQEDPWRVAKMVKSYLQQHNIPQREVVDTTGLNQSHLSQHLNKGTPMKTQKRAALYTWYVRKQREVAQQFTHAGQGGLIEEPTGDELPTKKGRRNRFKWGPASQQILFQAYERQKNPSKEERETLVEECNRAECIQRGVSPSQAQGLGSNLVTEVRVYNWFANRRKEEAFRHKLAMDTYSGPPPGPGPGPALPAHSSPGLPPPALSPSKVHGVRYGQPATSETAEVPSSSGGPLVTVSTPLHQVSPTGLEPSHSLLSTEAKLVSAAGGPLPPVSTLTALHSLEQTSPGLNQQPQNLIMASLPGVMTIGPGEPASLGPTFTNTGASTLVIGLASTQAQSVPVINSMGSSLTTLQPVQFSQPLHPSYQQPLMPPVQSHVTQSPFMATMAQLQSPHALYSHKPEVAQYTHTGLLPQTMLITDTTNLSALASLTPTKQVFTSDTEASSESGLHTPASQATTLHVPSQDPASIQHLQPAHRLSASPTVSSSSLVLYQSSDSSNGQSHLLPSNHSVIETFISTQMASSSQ

These are yes or no findings as the source states them, for the method shown. In cells and extracts the contact can be indirect. A yes stands for co-enrichment or nearness to the bait. Other partners may have been found. Tags and fused reporters may be left off the sequences shown.

For “HNF1α found by mass spectrometry with Flag-TRIM8 (from UniProt P20823 1-631)”, the binding result is given as “binds”.
